Data on one molecule can be found in article doi:10.1101/2023.05.09.540055.

The test has as its target T1, 3xFLAG-SRSF7 (serine/arginine-rich splicing factor 7) (UniProt Q8BL97).
T1 sequence: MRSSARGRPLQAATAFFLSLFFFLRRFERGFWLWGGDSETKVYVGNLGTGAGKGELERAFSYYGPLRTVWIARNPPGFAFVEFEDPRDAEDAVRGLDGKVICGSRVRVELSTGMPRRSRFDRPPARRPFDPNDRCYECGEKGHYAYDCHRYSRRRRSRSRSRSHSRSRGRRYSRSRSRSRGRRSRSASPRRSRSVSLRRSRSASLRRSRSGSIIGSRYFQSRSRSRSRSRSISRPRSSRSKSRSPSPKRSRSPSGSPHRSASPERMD
The experiment in a line: co-IP.

No constants are given. Whether binding was seen depends on the method and setting. In cells and extracts the contact can be indirect. Some results given as binding are weak or reduced against the parent protein; the word gives no strength. Where a sequence is shown, tags or fusion partners need not be part of it.

B1: KMT5a (SET8), H4K20me1 histone methyltransferase (enzyme, UniProt Q2YDW7 1-349)
chain: MARGRKMCKPRAVEAAAAAVAATAPGPEMVEQRGPGRPRSDGENVFAGQSKIYAYMSPNKCSAMRSPLQEENSVAHHEVKCPGKPLAGIYRKREEKRNTGNVIRSAVKSDEQKSKDTRRGPLAPFPNQKSEAAEPPKTPPPSCDSTNVAVAKQALKKSLKGKQAPRKKSQGKTQQNRKLTDFYPVRRSSRKSKAELQSEERKKNELIESGKEEGMKIDLIDGKGRGVIATKQFSRGDFVVEYHGDLIEITDAKKREALYVQDPSTGCYMYYFQYLSKTYCVDATQETNRLGRLINHSKCGNCQTKLHDIDGVPHLILIASRDIAAGEELLYDYGDRSKASIEAYPWLKH
For B1, the binding result is recorded as “binds”.
